Laboratory results taken from the supplement of paper PMC10331698.
± gives the standard deviation of the averaged measurements. Small differences around the control level are noise.

What was measured:
Experiment in all cases: level (log10 ratio to DMSO vehicle control); higher = higher biomarker level / cell amount than vehicle control
[1] = compound: O=C(O)C=C(C(F)(F)F)C(F)(F)F [3,3-Bis(trifluoromethyl)-2-propenoic acid]; details: in DMSO
Protocol: (§1)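 BioMAP Diversity Plus panel of 12 human primary cell co-culture systems (3C, 4H, LPS, SAg, BT, BF4T, BE3C, CASM3C, HDF3CGF, KF3CT, MyoF, Mphg). Compounds were added 1 h before stimulation and left for 24 h (MyoF 48 h; BT 72 h for soluble read-outs or 6 d for IgG). Biomarkers were read by ELISA, cytotoxicity by SRB, PBMC viability and proliferation by Alamar Blue. Each well value was divided by the mean of 8 DMSO control wells on the same plate and log10 transformed; duplicate blinded samples were tested at 4 concentrations.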

[2] = compound: OCCCC(F)(F)C(F)(F)C(F)(F)C(F)(F)C(F)(F)C(F)(F)C(F)(F)F [7:3 Fluorotelomer alcohol]; details: 2200 nM; in DMSO
Protocol: as §1

[3] = compound: C=CC(=O)OCCC(F)(F)C(F)(F)C(F)(F)C(F)(F)F [2-(Perfluorobutyl)ethyl acrylate]; details: 2200 nM; in DMSO
Protocol: as §1

Perfluoro-1-iodohexane = compound: FC(F)(F)C(F)(F)C(F)(F)C(F)(F)C(F)(F)C(F)(F)I [Perfluoro-1-iodohexane]; details: in DMSO
Protocol: as §1

[4] = compound: FC(F)(I)C(F)(F)C(F)(F)C(F)(F)C(F)(F)C(F)(F)I [1,6-Diiodoperfluorohexane]; details: 2200 nM; in DMSO
Protocol: as §1

[5] = compound: C=CC(=O)OCC(F)(F)C(F)(F)C(F)(F)COC(=O)C=C [1H,1H,5H,5H-Perfluoro-1,5-pentanediol diacrylate]; details: 2200 nM; in DMSO
Protocol: as §1

[6] = compound: O=C(O)C(F)(F)C(F)(F)C(F)(F)C(F)(F)C(F)(F)C(F)(F)C(F)(F)C(F)(F)C(F)(F)C(F)(F)C(F)(F)C(F)(F)C(F)(F)F [Perfluorotetradecanoic acid]; details: in DMSO
Protocol: as §1

[7] = compound: C=CC(=O)OCCC(F)(F)C(F)(F)C(F)(F)C(F)(F)C(F)(F)C(F)(F)C(F)(F)C(F)(F)F [8:2 Fluorotelomer acrylate]; details: 2200 nM; in DMSO
Protocol: as §1

[8] = compound: O=S(=O)(O)C(F)(F)C(F)(F)C(F)(F)C(F)(F)C(F)(F)C(F)(F)F [Perfluorohexanesulfonic acid]; details: 2200 nM; in DMSO
Protocol: as §1

Hexafluoroamylene glycol = compound: OCC(F)(F)C(F)(F)C(F)(F)CO [Hexafluoroamylene glycol]; details: 2200 nM; in DMSO
Protocol: as §1

[9] = compound: O=S(=O)(O)CCC(F)(F)C(F)(F)C(F)(F)C(F)(F)F [4:2 Fluorotelomer sulfonic acid]; details: 2200 nM; in DMSO
Protocol: as §1

[10] = compound: O=C(Cl)C(F)(F)C(F)(F)C(F)(F)C(=O)Cl [Hexafluoroglutaryl chloride]; details: 2200 nM; in DMSO
Protocol: as §1

[11] = compound: FC(F)(F)C(F)(C(F)(F)F)C(F)(F)C(F)(F)CC1CO1 [3-(Perfluoro-3-methylbutyl)-1,2-propenoxide]; details: in DMSO
Protocol: as §1

| Test System | level (log10) ([1]; 2200 nM) | level (log10) ([1]; 6700 nM) | level (log10) ([1]; 20000 nM) | level (log10) ([1]; 60000 nM) | level (log10) [2] | level (log10) [3] | level (log10) (Perfluoro-1-iodohexane; 2200 nM) | level (log10) (Perfluoro-1-iodohexane; 6700 nM) | level (log10) (Perfluoro-1-iodohexane; 20000 nM) | level (log10) (Perfluoro-1-iodohexane; 60000 nM) | level (log10) [4] | level (log10) [5] | level (log10) ([6]; 740 nM) | level (log10) ([6]; 2200 nM) | level (log10) [7] | level (log10) [8] | level (log10) (Hexafluoroamylene glycol) | level (log10) [9] | level (log10) [10] | level (log10) ([11]; 740 nM) | level (log10) ([11]; 2200 nM) |
| --- | --- | --- | --- | --- | --- | --- | --- | --- | --- | --- | --- | --- | --- | --- | --- | --- | --- | --- | --- | --- | --- |
| KF3CT:CXCL8/IL-8 | -0.004 ± 0.017 | -0.004 ± 0.0028 | 0.0025 ± 0.0092 | 0.0245 ± 0.016 | -0.0055 ± 0.00071 | -0.013 ± 0.0042 | -0.018 ± 0.021 | -0.0125 ± 0.016 | 0.003 ± 0.0014 | 0 ± 0.011 | 0.0065 ± 0.028 | 0.0045 ± 0.036 | 0.006 ± 0.03 | 0.0045 ± 0.019 | -0.0035 ± 0.00071 | 0.0145 ± 0.0078 | 0.017 ± 0.021 | 0.001 ± 0.0028 | -0.022 ± 0.025 | 0.005 ± 0.018 | -0.0075 ± 0.00071 |
| HDF3CGF:Collagen I | -0.03 ± 0.038 | -0.031 ± 0.0028 | -0.041 ± 0.02 | -0.03 ± 0.038 | 0.0255 ± 0.011 | -0.009 ± 0.098 | 0.0095 ± 0.042 | -0.0285 ± 0.026 | -0.0365 ± 0.0092 | -0.045 ± 0.0071 | -0.012 ± 0.052 | -0.0755 ± 0.043 | 0.026 ± 0.0085 | -0.001 ± 0.034 | -0.016 ± 0.061 | 0.0205 ± 0.021 | 0.0305 ± 0.015 | 0.0375 ± 0.14 | 0.0085 ± 0.06 | 0.0005 ± 0.061 | -0.0085 ± 0.12 |
| BT:Secreted IgG | 0.0235 ± 0.016 | 0.0155 ± 0.005 | -0.0375 ± 0.052 | -0.597 ± 0.16 | -0.01 ± 0.048 | -0.0165 ± 0.011 | 0.0135 ± 0.0035 | 0.0195 ± 0.023 | -0.0165 ± 0.043 | -0.0315 ± 0.081 | 0.005 ± 0.014 | -0.02 ± 0.034 | -0.0025 ± 0.035 | -0.022 ± 0.023 | 0.001 ± 0.021 | 0.0125 ± 0.011 | 0.01 ± 0.041 | -0.011 ± 0.045 | -0.0025 ± 0.016 | 0.034 ± 0.03 | 0.0415 ± 0.016 |
| BE3C:uPA | 0.001 ± 0.018 | -0.0205 ± 0.011 | -0.015 ± 0.0099 | -0.0045 ± 0.018 | -0.0155 ± 0.03 | -0.0025 ± 0.035 | -0.0015 ± 0.025 | 0.0175 ± 0.015 | -0.0005 ± 0.0035 | 0.001 ± 0.0085 | -0.0185 ± 0.0078 | -0.0105 ± 0.005 | -0.001 ± 0.0057 | 0.0035 ± 0.026 | 0.009 ± 0.033 | 0.0055 ± 0.035 | 0.001 ± 0.021 | 0.005 ± 0.0042 | 0.0055 ± 0.0035 | 0.0165 ± 0.0064 | 0.003 ± 0.0057 |
